Measurements: the supplement of paper PMC12823440, “Inhibitors supercharge kinase turnover through native proteolytic circuits” (Nature, 2025)
The other results are listed elsewhere or left out. Hit calls seldom repeat between salt and free forms of one compound.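 Kinases were expressed as nanoluciferase fusions in K562 cells and luminescence was read every 4 h between 2 and 18 h as percent of control, DMSO set to 100% and a positive control to 0%. A time point counts as decreased when the signal drops significantly (2 sigma). The hit call is the authors' own, does not follow from the count of time points alone, and its rule is not shown.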

The chains behind the UniProt entries cited, without tags or fusion partners. Where a name states a change or a piece, a line headed by the entry shows the natural chain unless it says otherwise.
UniProt Q9BRS2: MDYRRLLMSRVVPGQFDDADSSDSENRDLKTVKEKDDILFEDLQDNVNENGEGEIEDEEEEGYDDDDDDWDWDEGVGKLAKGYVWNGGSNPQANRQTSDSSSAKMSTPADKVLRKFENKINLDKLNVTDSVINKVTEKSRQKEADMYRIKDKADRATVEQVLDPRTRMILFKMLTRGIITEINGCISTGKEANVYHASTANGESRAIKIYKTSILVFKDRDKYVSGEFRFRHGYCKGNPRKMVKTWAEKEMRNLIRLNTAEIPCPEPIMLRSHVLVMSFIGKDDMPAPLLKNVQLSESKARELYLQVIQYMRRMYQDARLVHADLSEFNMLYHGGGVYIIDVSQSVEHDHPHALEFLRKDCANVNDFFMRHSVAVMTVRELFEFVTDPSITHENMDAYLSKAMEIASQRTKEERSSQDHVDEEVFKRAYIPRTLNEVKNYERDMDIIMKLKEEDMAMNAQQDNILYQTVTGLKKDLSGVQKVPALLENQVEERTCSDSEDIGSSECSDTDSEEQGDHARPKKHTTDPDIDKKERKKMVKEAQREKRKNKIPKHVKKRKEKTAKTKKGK
UniProt Q9UQM7, whole entry: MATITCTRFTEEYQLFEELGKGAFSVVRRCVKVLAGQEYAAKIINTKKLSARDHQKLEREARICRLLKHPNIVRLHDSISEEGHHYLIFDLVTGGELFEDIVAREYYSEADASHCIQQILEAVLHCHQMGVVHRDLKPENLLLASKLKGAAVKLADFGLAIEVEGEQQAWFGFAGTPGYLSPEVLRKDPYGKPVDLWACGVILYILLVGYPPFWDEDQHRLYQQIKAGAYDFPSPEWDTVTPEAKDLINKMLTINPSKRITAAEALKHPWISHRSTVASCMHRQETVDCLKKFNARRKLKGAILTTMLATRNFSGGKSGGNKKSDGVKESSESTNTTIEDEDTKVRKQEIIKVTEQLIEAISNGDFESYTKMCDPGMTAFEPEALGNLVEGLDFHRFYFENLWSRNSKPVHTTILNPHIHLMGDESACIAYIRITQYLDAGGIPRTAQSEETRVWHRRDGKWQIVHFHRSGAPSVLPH
UniProt Q14289, whole entry, looked up: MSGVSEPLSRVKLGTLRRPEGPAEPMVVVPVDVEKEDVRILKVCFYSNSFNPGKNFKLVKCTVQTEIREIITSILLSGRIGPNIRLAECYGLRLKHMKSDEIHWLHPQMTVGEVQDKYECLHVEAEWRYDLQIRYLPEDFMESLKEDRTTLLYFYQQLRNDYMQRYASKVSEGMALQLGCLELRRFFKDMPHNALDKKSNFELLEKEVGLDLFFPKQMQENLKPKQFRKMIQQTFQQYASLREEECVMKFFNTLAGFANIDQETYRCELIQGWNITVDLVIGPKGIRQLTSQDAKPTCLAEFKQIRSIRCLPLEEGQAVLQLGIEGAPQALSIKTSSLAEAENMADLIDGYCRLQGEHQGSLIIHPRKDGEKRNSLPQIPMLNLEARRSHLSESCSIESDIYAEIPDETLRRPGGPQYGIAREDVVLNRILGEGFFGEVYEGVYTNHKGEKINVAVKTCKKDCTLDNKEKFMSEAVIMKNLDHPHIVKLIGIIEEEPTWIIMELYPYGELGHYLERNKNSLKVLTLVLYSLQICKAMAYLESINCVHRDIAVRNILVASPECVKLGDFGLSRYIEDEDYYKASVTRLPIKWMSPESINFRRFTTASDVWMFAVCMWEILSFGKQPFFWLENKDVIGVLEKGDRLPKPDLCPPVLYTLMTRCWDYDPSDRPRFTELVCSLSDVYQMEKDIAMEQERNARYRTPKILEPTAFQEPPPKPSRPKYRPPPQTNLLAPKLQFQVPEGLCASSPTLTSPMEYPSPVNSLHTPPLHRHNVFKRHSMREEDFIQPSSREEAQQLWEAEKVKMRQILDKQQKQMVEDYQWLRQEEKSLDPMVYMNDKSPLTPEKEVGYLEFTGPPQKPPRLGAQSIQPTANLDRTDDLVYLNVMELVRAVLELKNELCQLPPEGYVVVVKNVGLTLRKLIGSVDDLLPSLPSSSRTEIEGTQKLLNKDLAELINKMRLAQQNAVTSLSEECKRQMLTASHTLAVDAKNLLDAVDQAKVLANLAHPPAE
UniProt P49840: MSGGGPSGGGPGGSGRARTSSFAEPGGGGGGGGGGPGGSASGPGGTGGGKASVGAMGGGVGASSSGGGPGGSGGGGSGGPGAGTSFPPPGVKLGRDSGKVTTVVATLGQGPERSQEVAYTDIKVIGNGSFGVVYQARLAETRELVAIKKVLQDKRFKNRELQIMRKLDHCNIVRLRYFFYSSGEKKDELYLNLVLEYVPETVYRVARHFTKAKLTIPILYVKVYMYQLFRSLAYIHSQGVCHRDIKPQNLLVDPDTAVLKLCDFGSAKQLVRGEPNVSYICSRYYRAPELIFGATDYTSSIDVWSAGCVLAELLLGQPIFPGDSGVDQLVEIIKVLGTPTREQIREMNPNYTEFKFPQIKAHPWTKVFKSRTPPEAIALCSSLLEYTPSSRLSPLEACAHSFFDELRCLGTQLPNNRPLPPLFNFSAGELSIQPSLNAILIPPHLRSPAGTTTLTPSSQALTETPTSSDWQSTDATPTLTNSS
UniProt Q05397, whole entry, looked up: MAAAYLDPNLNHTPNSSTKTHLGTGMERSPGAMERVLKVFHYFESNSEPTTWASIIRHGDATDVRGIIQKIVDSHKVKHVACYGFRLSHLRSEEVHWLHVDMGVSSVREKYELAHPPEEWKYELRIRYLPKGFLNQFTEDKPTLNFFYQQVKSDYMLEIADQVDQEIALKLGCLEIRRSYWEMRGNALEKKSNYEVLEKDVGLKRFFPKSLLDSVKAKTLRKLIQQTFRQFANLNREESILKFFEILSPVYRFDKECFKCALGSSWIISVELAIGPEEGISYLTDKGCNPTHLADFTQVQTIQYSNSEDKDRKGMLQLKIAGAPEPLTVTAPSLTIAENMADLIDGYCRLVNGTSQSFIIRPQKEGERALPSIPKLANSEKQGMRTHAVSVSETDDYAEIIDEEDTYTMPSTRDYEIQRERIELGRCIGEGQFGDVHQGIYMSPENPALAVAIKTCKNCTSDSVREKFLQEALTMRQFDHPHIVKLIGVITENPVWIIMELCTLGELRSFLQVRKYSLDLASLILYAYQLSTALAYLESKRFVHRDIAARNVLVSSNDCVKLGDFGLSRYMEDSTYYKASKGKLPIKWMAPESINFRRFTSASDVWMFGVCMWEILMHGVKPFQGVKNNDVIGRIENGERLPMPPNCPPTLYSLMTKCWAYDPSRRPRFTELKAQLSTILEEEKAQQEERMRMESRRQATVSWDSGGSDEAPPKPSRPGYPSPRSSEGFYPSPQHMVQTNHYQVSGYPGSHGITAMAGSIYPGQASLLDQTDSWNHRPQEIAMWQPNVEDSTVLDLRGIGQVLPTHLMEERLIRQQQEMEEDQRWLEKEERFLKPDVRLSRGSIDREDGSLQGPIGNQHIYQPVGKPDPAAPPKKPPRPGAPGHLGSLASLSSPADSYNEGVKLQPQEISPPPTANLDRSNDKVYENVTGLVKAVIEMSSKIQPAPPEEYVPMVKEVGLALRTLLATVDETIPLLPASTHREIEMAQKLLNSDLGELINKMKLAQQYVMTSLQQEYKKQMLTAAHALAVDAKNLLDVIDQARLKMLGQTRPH
UniProt P07949, whole entry M918T, looked up: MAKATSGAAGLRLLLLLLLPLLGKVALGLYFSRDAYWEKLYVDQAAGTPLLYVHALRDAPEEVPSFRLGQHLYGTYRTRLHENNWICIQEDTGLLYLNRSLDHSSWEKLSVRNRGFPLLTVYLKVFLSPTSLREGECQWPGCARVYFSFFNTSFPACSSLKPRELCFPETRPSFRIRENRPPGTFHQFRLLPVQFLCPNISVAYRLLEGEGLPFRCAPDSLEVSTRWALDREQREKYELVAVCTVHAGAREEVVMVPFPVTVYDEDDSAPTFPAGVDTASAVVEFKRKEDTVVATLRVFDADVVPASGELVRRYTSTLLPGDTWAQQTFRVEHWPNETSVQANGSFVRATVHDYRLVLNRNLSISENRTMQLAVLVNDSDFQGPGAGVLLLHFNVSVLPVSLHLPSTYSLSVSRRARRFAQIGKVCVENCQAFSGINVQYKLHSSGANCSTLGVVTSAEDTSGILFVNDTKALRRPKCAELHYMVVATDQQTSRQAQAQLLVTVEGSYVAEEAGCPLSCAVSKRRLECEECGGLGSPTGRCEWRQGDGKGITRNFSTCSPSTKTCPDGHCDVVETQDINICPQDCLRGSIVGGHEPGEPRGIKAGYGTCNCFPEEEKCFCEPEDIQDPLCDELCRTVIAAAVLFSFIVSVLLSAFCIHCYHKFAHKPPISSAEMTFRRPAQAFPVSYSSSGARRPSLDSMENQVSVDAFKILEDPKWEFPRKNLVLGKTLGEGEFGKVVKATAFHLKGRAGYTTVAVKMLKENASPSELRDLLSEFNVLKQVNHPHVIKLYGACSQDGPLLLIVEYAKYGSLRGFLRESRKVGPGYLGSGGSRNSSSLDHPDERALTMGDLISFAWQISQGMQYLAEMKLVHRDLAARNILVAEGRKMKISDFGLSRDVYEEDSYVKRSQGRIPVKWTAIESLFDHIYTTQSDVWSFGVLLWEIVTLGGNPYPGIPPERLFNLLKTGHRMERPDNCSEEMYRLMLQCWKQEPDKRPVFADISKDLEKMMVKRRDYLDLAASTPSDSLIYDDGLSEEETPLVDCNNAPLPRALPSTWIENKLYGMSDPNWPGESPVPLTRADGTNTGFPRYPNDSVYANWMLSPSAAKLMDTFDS
UniProt P48729: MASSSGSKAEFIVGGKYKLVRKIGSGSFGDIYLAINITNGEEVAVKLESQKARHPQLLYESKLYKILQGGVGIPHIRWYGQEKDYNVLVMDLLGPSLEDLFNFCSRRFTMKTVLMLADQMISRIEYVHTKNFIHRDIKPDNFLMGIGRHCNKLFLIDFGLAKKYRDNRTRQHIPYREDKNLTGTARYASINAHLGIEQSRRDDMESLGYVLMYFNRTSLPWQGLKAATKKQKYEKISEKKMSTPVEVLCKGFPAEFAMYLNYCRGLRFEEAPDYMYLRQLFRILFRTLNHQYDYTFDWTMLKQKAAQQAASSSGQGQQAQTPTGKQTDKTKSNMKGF
UniProt Q16288, whole entry, looked up: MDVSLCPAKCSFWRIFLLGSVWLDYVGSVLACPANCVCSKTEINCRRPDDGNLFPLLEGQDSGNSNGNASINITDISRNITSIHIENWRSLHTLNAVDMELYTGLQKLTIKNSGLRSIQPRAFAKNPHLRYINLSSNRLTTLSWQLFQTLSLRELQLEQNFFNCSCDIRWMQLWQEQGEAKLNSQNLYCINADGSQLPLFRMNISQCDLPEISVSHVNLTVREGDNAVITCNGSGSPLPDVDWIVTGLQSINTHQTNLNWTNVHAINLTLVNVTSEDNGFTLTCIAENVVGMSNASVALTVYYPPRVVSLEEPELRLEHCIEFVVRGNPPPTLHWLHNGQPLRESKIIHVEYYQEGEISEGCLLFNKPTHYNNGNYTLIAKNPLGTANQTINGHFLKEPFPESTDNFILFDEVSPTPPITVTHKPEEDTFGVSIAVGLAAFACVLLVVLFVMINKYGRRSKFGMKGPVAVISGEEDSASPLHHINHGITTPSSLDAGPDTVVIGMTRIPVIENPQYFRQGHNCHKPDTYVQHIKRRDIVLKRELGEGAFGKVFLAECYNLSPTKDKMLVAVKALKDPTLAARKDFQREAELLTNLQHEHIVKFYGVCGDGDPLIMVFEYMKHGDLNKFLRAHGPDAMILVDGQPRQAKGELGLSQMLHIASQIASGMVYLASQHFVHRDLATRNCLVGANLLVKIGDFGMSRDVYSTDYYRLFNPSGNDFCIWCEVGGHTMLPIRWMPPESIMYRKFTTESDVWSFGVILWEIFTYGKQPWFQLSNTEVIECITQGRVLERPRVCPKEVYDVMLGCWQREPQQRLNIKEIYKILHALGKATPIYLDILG
UniProt P43403: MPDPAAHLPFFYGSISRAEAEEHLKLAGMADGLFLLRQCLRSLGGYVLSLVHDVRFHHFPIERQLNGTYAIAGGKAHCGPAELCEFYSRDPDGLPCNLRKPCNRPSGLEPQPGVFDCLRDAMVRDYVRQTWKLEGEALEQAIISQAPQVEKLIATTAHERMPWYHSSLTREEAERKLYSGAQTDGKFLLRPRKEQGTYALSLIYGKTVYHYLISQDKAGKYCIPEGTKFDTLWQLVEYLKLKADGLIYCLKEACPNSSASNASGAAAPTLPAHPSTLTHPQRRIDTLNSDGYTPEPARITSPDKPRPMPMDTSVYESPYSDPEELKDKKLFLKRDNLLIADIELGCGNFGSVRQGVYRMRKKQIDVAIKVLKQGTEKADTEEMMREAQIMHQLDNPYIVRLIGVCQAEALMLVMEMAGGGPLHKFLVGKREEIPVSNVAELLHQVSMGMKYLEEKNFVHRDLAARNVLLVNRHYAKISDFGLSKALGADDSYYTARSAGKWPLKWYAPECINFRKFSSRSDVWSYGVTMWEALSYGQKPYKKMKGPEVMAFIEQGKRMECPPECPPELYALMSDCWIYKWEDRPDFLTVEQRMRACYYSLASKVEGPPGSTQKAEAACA

How the values were obtained:
Assay in all cases: number of time points (of 5) at which kinase-Nluc abundance scored as decreased, DMSO-normalised (count); higher = more persistent destabilization
[1] = compound: O=C(Nc1ccncc1)Nc1ccc(-c2nc(N3CCOCC3)nc(N3C4CCC3COC4)n2)cc1; conditions: 10 µM; K562; 2-18 h
Larotrectinib sulfate = compound: O=C(Nc1cnn2ccc(N3CCC[C@@H]3c3cc(F)ccc3F)nc12)N1CC[C@H](O)C1 [Larotrectinib sulfate]; conditions: 10 µM; K562; 2-18 h
Larotrectinib = compound: O=C(Nc1cnn2ccc(N3CCC[C@@H]3c3cc(F)ccc3F)nc12)N1CC[C@H](O)C1 [Larotrectinib]; conditions: 10 µM; K562; 2-18 h
[2] = compound: O=C(O)c1ccc2c(c1)nc(Nc1cccc(Cl)c1)c1ccncc12 [Silmitasertib (sodium salt)]; conditions: 10 µM; K562; 2-18 h
Silmitasertib = compound: O=C(O)c1ccc2c(c1)nc(Nc1cccc(Cl)c1)c1ccncc12 [Silmitasertib]; conditions: 10 µM; K562; 2-18 h
[3] = compound: O=C(c1ccc(F)c(F)c1Nc1ccc(I)cc1F)N1CC(O)([C@@H]2CCCCN2)C1 [Cobimetinib (hemifumarate)]; conditions: 10 µM; K562; 2-18 h
Cobimetinib = compound: O=C(c1ccc(F)c(F)c1Nc1ccc(I)cc1F)N1CC(O)([C@@H]2CCCCN2)C1 [Cobimetinib]; conditions: 10 µM; K562; 2-18 h
[4] = compound: O=C(c1nn(-c2ccc(CN3CCOCC3)cc2)c2c1CS(=O)(=O)c1c(F)cccc1-2)N1CCOCC1; conditions: 10 µM; K562; 2-18 h
(E/Z)-GSK-3β inhibitor 1 = compound: O=C1Nc2ccccc2/C1=C/c1ccccn1 [(E/Z)-GSK-3β inhibitor 1]; conditions: 10 µM; K562; 2-18 h
GSK-3β inhibitor 1 = compound: O=C1Nc2ccccc2/C1=C/c1ccccn1 [GSK-3β inhibitor 1]; conditions: 10 µM; K562; 2-18 h
[5] = compound: OCCn1cc(-c2cnc3nnn(Cc4ccc5ncccc5c4)c3n2)cn1; conditions: 10 µM; K562; 2-18 h
PI-103 (Hydrochloride) = compound: Oc1cccc(-c2nc(N3CCOCC3)c3oc4ncccc4c3n2)c1 [PI-103 (Hydrochloride)]; conditions: 2.5 µM; K562; 2-18 h
[6] = compound: Oc1cccc(-c2nc(N3CCOCC3)c3oc4ncccc4c3n2)c1; conditions: 10 µM; K562; 2-18 h
[7] = compound: c1cc(-c2cnn3cc(-c4ccc(OCCN5CCCCC5)cc4)cnc23)ccn1 [Dorsomorphin (dihydrochloride)]; conditions: 2.5 µM; K562; 2-18 h
Dorsomorphin = compound: c1cc(-c2cnn3cc(-c4ccc(OCCN5CCCCC5)cc4)cnc23)ccn1 [Dorsomorphin]; conditions: 2.5 µM; K562; 2-18 h

Row | Target | number of time points [1] | number of time points (Larotrectinib sulfate) | number of time points (Larotrectinib) | number of time points [2] | number of time points (Silmitasertib) | number of time points [3] | number of time points (Cobimetinib) | number of time points [4] | number of time points ((E/Z)-GSK-3β inhibitor 1) | number of time points (GSK-3β inhibitor 1) | number of time points [5] | number of time points (PI-103 (Hydrochloride)) | number of time points [6] | number of time points [7] | number of time points (Dorsomorphin)
1 | EGFR_G719S_T790M (UniProt P00533) | 0 | 0 | 0 | 3 | 0 | 2 | 1 | 0 | 0 | 0 | 0 | 0 | 0 | 3 | 0
2 | PDK1 (UniProt Q15118) | 0 | 0 | 0 | 0 | 0 | 0 | 0 | 0 | 0 | 0 | 0 | 0 | 0 | 0 | 0
3 | LYN (UniProt P07948) | 0 | 0 | 0 | 2 | 0 | 0 | 0 | 0 | 0 | 0 | 0 | 0 | 0 | 0 | 0
4 | RIOK1 (UniProt Q9BRS2) | 0 | 0 | 0 | 3 | 0 | 2 | 0 | 0 | 0 | 0 | 0 | 0 | 0 | 2 | 0
5 | CAMK2A (UniProt Q9UQM7) | 0 | 0 | 0 | 0 | 0 | 0 | 0 | 0 | 0 | 0 | 0 | 0 | 0 | 0 | 0
6 | PTK2B (UniProt Q14289) | 0 | 0 | 0 | 2 | 0 | 2 | 0 | 0 | 0 | 0 | 0 | 0 | 0 | 0 | 0
7 | EGFR_L858R (UniProt P00533) | 0 | 0 | 0 | 2 | 0 | 0 | 1 | 0 | 0 | 0 | 0 | 0 | 0 | 3 | 0
8 | GSK3A (UniProt P49840) | 0 | 0 | 0 | 0 | 0 | 0 | 0 | 0 | 0 | 0 | 0 | 0 | 0 | 0 | 0
9 | PTK2 (UniProt Q05397) | 3 | 0 | 0 | 1 | 3 | 1 | 0 | 0 | 0 | 0 | 0 | 0 | 0 | 2 | 0
10 | PIK4CB (UniProt Q9UBF8) | 0 | 0 | 0 | 2 | 0 | 2 | 1 | 0 | 0 | 0 | 0 | 0 | 0 | 0 | 0
11 | RIPK1 (UniProt Q13546) | 1 | 0 | 0 | 3 | 0 | 1 | 0 | 0 | 0 | 0 | 0 | 0 | 0 | 3 | 0
12 | RET_M918T (clone: RET_mut) (UniProt P07949) | 4 | 0 | 0 | 3 | 0 | 0 | 0 | 0 | 0 | 0 | 0 | 0 | 0 | 0 | 0
13 | SRC (UniProt P12931) | 0 | 0 | 0 | 0 | 0 | 0 | 0 | 0 | 0 | 0 | 0 | 0 | 0 | 0 | 0
14 | CSNK1A1 (UniProt P48729) | 0 | 0 | 0 | 2 | 4 | 0 | 0 | 0 | 0 | 0 | 0 | 0 | 0 | 0 | 0
15 | NTRK3 (UniProt Q16288) | 4 | 0 | 0 | 2 | 0 | 0 | 0 | 0 | 0 | 0 | 0 | 0 | 0 | 3 | 0
16 | PRKAA1 (UniProt Q13131) | 0 | 0 | 0 | 2 | 0 | 2 | 1 | 0 | 0 | 0 | 0 | 0 | 0 | 1 | 0
17 | PBK (UniProt Q96KB5) | 0 | 0 | 0 | 0 | 0 | 0 | 0 | 0 | 0 | 0 | 0 | 0 | 0 | 0 | 0
18 | BRAF_V600E | 1 | 0 | 0 | 3 | 0 | 3 | 3 | 0 | 0 | 0 | 0 | 1 | 1 | 3 | 0
19 | ZAK (UniProt Q9NYL2) | 0 | 0 | 0 | 1 | 0 | 0 | 0 | 0 | 0 | 0 | 0 | 0 | 0 | 0 | 0
20 | RIPK2 (UniProt O43353) | 0 | 0 | 0 | 3 | 0 | 2 | 2 | 0 | 0 | 0 | 0 | 0 | 0 | 4 | 1

Row | Target | number of time points [1] | number of time points (Larotrectinib sulfate) | number of time points (Larotrectinib) | number of time points [2] | number of time points (Silmitasertib) | number of time points [3] | number of time points (Cobimetinib) | number of time points [4] | number of time points ((E/Z)-GSK-3β inhibitor 1) | number of time points (GSK-3β inhibitor 1) | number of time points [5] | number of time points (PI-103 (Hydrochloride)) | number of time points [6] | number of time points [7] | number of time points (Dorsomorphin)
21 | ZAP70 (UniProt P43403) | 0 | 0 | 0 | 0 | 0 | 0 | 0 | 0 | 0 | 0 | 0 | 0 | 0 | 0 | 0
22 | RAF1 (UniProt P04049) | 4 | 0 | 0 | 2 | 0 | 3 | 4 | 0 | 1 | 0 | 0 | 0 | 0 | 2 | 0
23 | DDR1 (UniProt Q08345) | 3 | 0 | 0 | 0 | 0 | 1 | 1 | 0 | 0 | 0 | 0 | 3 | 1 | 4 | 0
24 | MAP4K2 (UniProt Q12851) | 0 | 0 | 0 | 0 | 0 | 0 | 0 | 0 | 0 | 0 | 0 | 0 | 0 | 0 | 0
25 | FLT3 (UniProt P36888) | 0 | 0 | 0 | 3 | 0 | 0 | 1 | 0 | 0 | 0 | 0 | 0 | 0 | 4 | 0
26 | MAPKAPK2 (UniProt P49137) | 0 | 0 | 0 | 0 | 0 | 0 | 0 | 0 | 0 | 0 | 0 | 0 | 0 | 0 | 0
27 | CDK6 (UniProt Q00534) | 0 | 0 | 0 | 0 | 0 | 0 | 0 | 0 | 0 | 0 | 0 | 0 | 0 | 0 | 0
28 | AURKB (UniProt Q96GD4) | 3 | 0 | 0 | 0 | 0 | 0 | 1 | 0 | 0 | 0 | 0 | 0 | 0 | 0 | 0
29 | CSF1R (UniProt P07333) | 4 | 0 | 0 | 1 | 0 | 0 | 0 | 0 | 0 | 0 | 0 | 0 | 0 | 0 | 0
30 | PIK4CA (UniProt P42356) | 0 | 0 | 0 | 2 | 0 | 0 | 1 | 0 | 0 | 0 | 0 | 0 | 0 | 0 | 0
31 | EPHA2 (UniProt P29317) | 0 | 0 | 0 | 0 | 1 | 1 | 0 | 0 | 0 | 0 | 0 | 0 | 0 | 0 | 0
32 | EGFR_G719S (UniProt P00533) | 0 | 0 | 0 | 2 | 4 | 2 | 2 | 0 | 0 | 0 | 0 | 0 | 0 | 1 | 0
33 | AURKA (UniProt O14965) | 4 | 0 | 0 | 0 | 0 | 3 | 1 | 0 | 0 | 0 | 0 | 0 | 0 | 0 | 0
34 | HER2 (UniProt P04626) | 0 | 0 | 0 | 0 | 3 | 0 | 0 | 0 | 0 | 0 | 0 | 0 | 0 | 0 | 0
35 | FGFR1 (UniProt P11362) | 5 | 0 | 0 | 2 | 0 | 0 | 0 | 0 | 0 | 0 | 0 | 0 | 0 | 0 | 0
36 | TYK2 (UniProt P29597) | 0 | 0 | 0 | 3 | 5 | 0 | 0 | 0 | 0 | 0 | 0 | 0 | 0 | 3 | 0
37 | FGFR2 (UniProt P21802) | 3 | 0 | 0 | 3 | 0 | 2 | 2 | 0 | 0 | 0 | 0 | 0 | 2 | 3 | 0
38 | ERN1 (UniProt O75460) | 0 | 0 | 0 | 2 | 0 | 0 | 0 | 0 | 0 | 0 | 0 | 0 | 0 | 0 | 0
39 | DYRK1B (UniProt Q9Y463) | 0 | 0 | 0 | 0 | 0 | 0 | 1 | 0 | 0 | 0 | 0 | 0 | 0 | 0 | 0

Whole records, quoted from the list. Order of values: number of time points [1] | number of time points (Larotrectinib sulfate) | number of time points (Larotrectinib) | number of time points [2] | number of time points (Silmitasertib) | number of time points [3] | number of time points (Cobimetinib) | number of time points [4] | number of time points ((E/Z)-GSK-3β inhibitor 1) | number of time points (GSK-3β inhibitor 1) | number of time points [5] | number of time points (PI-103 (Hydrochloride)) | number of time points [6] | number of time points [7] | number of time points (Dorsomorphin)
FGFR2 (UniProt P21802) as listed: 3 | 0 | 0 | 3 | 0 | 2 | 2 | 0 | 0 | 0 | 0 | 0 | 2 | 3 | 0
HER2 (UniProt P04626) as listed: 0 | 0 | 0 | 0 | 3 | 0 | 0 | 0 | 0 | 0 | 0 | 0 | 0 | 0 | 0
